No constants are given. Whether binding was seen depends on the method and setting. Binding seen in cells or lysates may run through a third protein. A yes stands for co-enrichment or nearness to the bait. Other partners may have been found.
B1: calprotectin subunit s100a8 (protein, UniProt P05109 1-93)
chain: MLTELEKALNSIIDVYHKYSLIKGNFHAVYRDDLKKLLETECPQYIRKKGADVWFKELDINTDGAVNFQEFLILVIKMGVAAHKKSHEESHKE
B2: calprotectin subunit s100a9 (protein, UniProt P06702 1-114)
chain: MTCKMSQLERNIETIINTFHQYSVKLGHPDTLNQGEFKELVRKDLQNFLKKENKNEKVIEHIMEDLDTNADKQLSFEEFIMLMARLTWASHEKMHEGDEGPGHHHKPGLGEGTP
B3: Synaptogyrin-2 (protein, UniProt O43760 1-224)
chain: MESGAYGAAKAGGSFDLRRFLTQPQVVARAVCLVFALIVFSCIYGEGYSNAHESKQMYCVFNRNEDACRYGSAIGVLAFLASAFFLVVDAYFPQISNATDRKYLVIGDLLFSALWTFLWFVGFCFLTNQWAVTNPKDVLVGADSVRAAITFSFFSIFSWGVLASLAYQRYKAGVDDFIQNYVDPTPDPNTAYASYPGASVDNYQQPPFTQNAETTEGYQPPPVY

Each binder was assayed against increased sodium tolerance 1 (IST1) (human (endogenous in moDCs)) (UniProt P53990) (assay: affinity purification with mass spectrometry; endogenous IST1 immunoprecipitated from lysates of moDCs cultured overnight with or without 10% FBS (rabbit anti-IST1, protein A/G magnetic beads, 4°C; lysis buffer 200 mM NaCl, 75 mM Tris-HCl, 15 mM NaF, 7.5 mM EDTA, 7.5 mM EGTA, 0.15% Tween20); eluted with 0.2 M glycine pH 2-3; four donors; compared with beads only).

Row | Binder | binding
1 | B1 | binds
2 | B2 | binds
3 | B3 | binds

Source: article PMC10200693
